Results reported in the supplement of paper PMC3334620.
The full ranking holds about 33,000 sequences; the median of “E-score (-0.5 to 0.5)” is about -0.016, and the highest 2% start at about 0.3. The list shows a part of the results.

These sequences were tested against T1, Yer184c (UniProt P39961) (assay: PBM E-score (8-mer binding enrichment) (E-score (-0.5 to 0.5)); higher = stronger / more preferred TF binding). Conditions: protein concentration: 100 nM; construct: GST-full length.
T1 sequence: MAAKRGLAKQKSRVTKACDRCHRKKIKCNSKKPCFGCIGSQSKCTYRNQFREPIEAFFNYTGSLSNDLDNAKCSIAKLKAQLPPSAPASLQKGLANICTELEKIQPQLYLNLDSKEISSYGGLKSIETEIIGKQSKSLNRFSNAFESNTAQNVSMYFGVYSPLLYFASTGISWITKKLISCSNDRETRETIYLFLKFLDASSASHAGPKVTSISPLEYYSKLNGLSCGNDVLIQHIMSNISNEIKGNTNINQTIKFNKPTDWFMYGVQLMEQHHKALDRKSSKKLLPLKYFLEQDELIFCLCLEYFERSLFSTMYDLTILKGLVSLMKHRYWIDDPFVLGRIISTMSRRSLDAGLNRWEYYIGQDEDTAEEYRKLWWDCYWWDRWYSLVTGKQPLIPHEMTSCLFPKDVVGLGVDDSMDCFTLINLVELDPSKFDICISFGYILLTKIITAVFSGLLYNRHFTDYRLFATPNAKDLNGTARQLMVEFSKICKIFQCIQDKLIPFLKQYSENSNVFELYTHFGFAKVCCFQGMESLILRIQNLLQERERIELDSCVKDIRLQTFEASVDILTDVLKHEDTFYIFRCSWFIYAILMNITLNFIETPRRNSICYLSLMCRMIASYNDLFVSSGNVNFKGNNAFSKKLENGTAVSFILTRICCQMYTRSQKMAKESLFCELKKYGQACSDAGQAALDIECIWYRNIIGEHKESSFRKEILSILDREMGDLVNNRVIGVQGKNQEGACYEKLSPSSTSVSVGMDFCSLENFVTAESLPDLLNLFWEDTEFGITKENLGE
Protocol: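 Universal 'all 10-mer' protein binding microarrays (Agilent AMADID 015681) probed with GST-tagged S. cerevisiae TFs (full-length or DBD) made by in vitro transcription/translation (PURExpress), about 100-200 nM. Bound TF was detected with fluorescent anti-GST. Each ungapped 8-mer (which stands for itself and its reverse complement) is scored by the PBM enrichment score (E-score), a modified Wilcoxon-Mann-Whitney statistic from -0.5 to +0.5, computed with the Universal PBM Analysis Suite. Scale: above 0.35 generally sequence-specific binding.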

Row | Sequence | PBM E-score
1 | ATTTATAC | 0.28
2 | GCCTTCCA | -0.306
3 | ATATAGAG | -0.15
4 | ACCTCCTA | -0.245
5 | CAGAATCG | 0.209
6 | AGTTGGAT | -0.0537
7 | CGACATAC | -0.0669
8 | GCAGGATA | -0.168
9 | AGTTACAC | 0.0959
10 | GACGGCAC | -0.121
11 | GTAAAGTA | 0.053
12 | CAAGTGTC | -0.218
13 | AACCAGAG | -0.147
14 | CCAATGTA | -0.12
15 | GCACGACC | -0.252
16 | AAGCGGGT | -0.106
17 | ATTCCCTC | -0.205
18 | CCTTAAGA | -0.0222
19 | GAACAGAA | 0.131
20 | CCCGGGCG | 0.273
21 | ACGTACTG | -0.135
22 | CACGTAGG | -0.297
23 | CGGAATTC | 0.277
24 | ACCGTGCC | -0.0925
25 | CTTATTAC | 0.101

Row | Sequence | PBM E-score
26 | AGCGAGAA | -0.0543
27 | ACGTATCG | -0.0242
28 | TCAACAGA | 0.0503
29 | CGCAGTGC | -0.204
30 | ACGTGCTC | -0.116
31 | CAGAAGCA | -0.0176
32 | ACGGCTCA | 0.155
33 | ATACTAAC | 0.026
34 | CTCGGCCA | 0.204
35 | GCTCAGTA | 0.09
36 | ACGAGTAA | 0.162
37 | ATACAGCG | -0.0106
38 | CTTATAAC | 0.163
39 | AAAGTTTG | 0.115
40 | CTACCCAC | -0.304
41 | ACCTACTG | -0.223
42 | CTGCGAGA | -0.244
43 | GATCACCC | -0.11
44 | ACTGCTGG | -0.114
45 | CGTGCACC | -0.123
46 | ACAATTCA | 0.0457
47 | TCCTGTAA | 0.0976
48 | ATGTATTC | 0.023
49 | ACACCTGC | -0.0752
50 | CGCGTATA | -0.106

Some values from above.
Entry for ACGAGTAA under PBM E-score: 0.162
Entry for ATGTATTC under PBM E-score: 0.023
Entry for CGCGTATA under PBM E-score: -0.106
Entry for AGCGAGAA under PBM E-score: -0.0543

Next results follow:

Row | Sequence | PBM E-score
51 | CGGATTAA | 0.261
52 | AGGGGCAC | -0.268
53 | GTCCGAAC | 0.23
54 | CACAAACG | 0.249
55 | CCGTGGAC | -0.074
56 | AGTGGACA | 0.00221
57 | CGGGATAA | 0.268
58 | AGTTCAGG | -0.19
59 | CGAATTTC | 0.276
60 | CACTAGAA | -0.0913
61 | CACCTCCG | 0.181
62 | ATCTAGCG | -0.172
63 | CCTTTGGC | -0.189
64 | AACAACTA | 0.0541
65 | TCCAGCGA | -0.0333
66 | CGAGGAGC | -0.00945
67 | GCAACTAC | -0.0554
68 | CACGGGCC | -0.0449
69 | GTTACCGA | 0.177
70 | CTCTATGC | -0.146
71 | CACGACTA | -0.145
72 | GCTAGCCA | -0.242
73 | TAGAACAA | 0.113
74 | CCAACGAA | -0.0383
75 | CTGAACCC | -0.0694

Row | Sequence | PBM E-score
76 | GCGACAAC | 0.106
77 | AAGTAACC | -0.0344
78 | GAAGTTCC | -0.0325
79 | GTACTCCA | -0.158
80 | GAATTCTA | 0.148
81 | CCTCATTC | -0.0875
82 | TAGACCGA | 0.105
83 | GCCTAATA | -0.0645
84 | ATGCGTCA | -0.143
85 | ATCGTATG | -0.132
86 | CTATAAAA | 0.167
87 | CACGACAC | 0.0282
88 | CCACAAGA | 0.0207
89 | CCGGCGGC | 0.291
90 | GGATAAAA | 0.248
91 | ATAGCATG | -0.224
92 | AGACACAC | -0.179
93 | CGAACCCC | -0.191
94 | ATGTTGTC | -0.0701
95 | AGGTGCGC | -0.0417
96 | GCCAAGCA | -0.219
97 | ATAGCCCC | -0.379
98 | CCATCAAA | -0.0604
99 | CAGATCAA | -0.0793
100 | GTATCATA | 0.291

Random excerpt: four entries already listed.
Row | Sequence | PBM E-score
76 | GCGACAAC | 0.106
85 | ATCGTATG | -0.132
95 | AGGTGCGC | -0.0417
97 | ATAGCCCC | -0.379

Following part

Row | Sequence | PBM E-score
101 | ACGTCAGA | -0.151
102 | CGGTGAAG | 0.0982
103 | AAGCCTTC | -0.173
104 | CTGGACTC | -0.00465
105 | AGTGGGAT | -0.0674
106 | CCTTCCCA | -0.115
107 | AAGACCCA | -0.172
108 | CTAATACA | -0.00331
109 | AAATAACA | 0.161
110 | GCACACGC | -0.0979
111 | CCAGAAGC | -0.0398
112 | GATACGGC | 0.103
113 | TAATCTAA | 0.0908
114 | CGTTGGTC | -0.126
115 | CCTTTCGC | -0.101
116 | CACCGTAG | -0.0941
117 | ACTCCTAT | -0.011
118 | CGCCCGCG | 0.0421
119 | CGGGTACA | -0.04
120 | ACGAGCAC | -0.00524
121 | ACCTTCAA | -0.0661
122 | CCATCTCA | -0.159
123 | CAAGTCGC | -0.185
124 | AGAAATTG | 0.165
125 | CTACTCTC | -0.112

Row | Sequence | PBM E-score
126 | CCATCGCA | -0.234
127 | GGCCTATA | -0.119
128 | AGTGCGGC | 0.117
129 | AATTTTAG | 0.0221
130 | ATACGCTC | 0.0288
131 | CATCTGCG | -0.061
132 | AGTTGAAA | 0.105
133 | CGTTTTGA | 0.18
134 | CCGACAAG | 0.11
135 | CCCTCTCC | -0.291
136 | ATATGTGA | 0.0305
137 | CCAGTGGA | -0.133
138 | AGATGCGA | -0.0674
139 | CTCCGGGA | 0.205
140 | CCAAGAGA | -0.0841
141 | GAGTAATA | 0.284
142 | ACATTACT | 0.0564
143 | CCATTAAC | 0.0119
144 | AGACTCTC | -0.138
145 | TCGTGGAA | 0.0999
146 | AAGAAGCC | 0.208
147 | CGAGATTA | 0.27
148 | CTTCACAC | -0.147
149 | AGGTTCAA | 0.0797
150 | ATAGTAGG | 0.0295

Records 146 through 147 of the list above:
Row | Sequence | PBM E-score
146 | AAGAAGCC | 0.208
147 | CGAGATTA | 0.27

(further entries)

Row | Sequence | PBM E-score
151 | TACCTAAA | -0.0208
152 | GGGCGGAC | -0.0401
153 | CTGTGCGC | -0.0421
154 | GTTGAAAC | 0.192
155 | ATAACTGA | 0.151
156 | TGGCACAA | -0.061
157 | GGGCTTTA | -0.244
158 | CACTTGTC | -0.0593
159 | ACGCTGAA | -0.0417
160 | CTTATGGC | -0.0235
161 | GTCCAACA | -0.0865
162 | AAGACCGT | -0.163
163 | TAACTCCA | -0.147
164 | GCGCCTCC | -0.102
165 | CTAGCCGA | 0.288
166 | AGTCCCGA | -0.0308
167 | CTCGCTGC | -0.0365
168 | AGTTAGGC | -0.0842
169 | AACGTCAT | -0.0922
170 | AGCATCAA | 0.114
171 | ACGTCCGG | 0.162
172 | AAGCGAGA | -0.192
